PubChem BioAssay AID1159584, Peter MacCallum Cancer Centre | 2016

Purpose: 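Genes whose loss is lethal only together with E-cadherin loss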 (primary screen)
System: human MCF10A breast epithelial cells, parental and CDH1-null
Reagents: siRNA against human genes
Measurement: 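ATP luminescence (CellTiter-Glo) viability per line relative to mean mock wells over all plates, and the ratio of CDH1-null to parental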
Direction: CDH1-null / parental viability ratio: higher = CDH1-null cells survive relatively better than parental
Here is one part, drawn at random, of about 18,000 reagents. Further read-outs or replicates are left out here. Not stated in the record: the amount of reagent, the time to read-out.

target | CDH1-null / parental viability ratio
AHNAK | 1.16
LRRC36 | 1.1
LAMB1 | 1.07
PSCA | 1.42
CITED2 | 1
FAM170A | 1.22
NDUFB3 | 0.76
MYOZ2 | 0.88
SEMA3A | 1.2
CHD2 | 0.95
SERP2 | 0.76
SMURF2 | 0.99
SPAG5 | 1.07
RNASEH2A | 1.3
DBR1 | 1.14
ADAMTSL3 | 1.04
PROKR1 | 0.82
UBE2Q1 | 0.96
KDM3B | 1.28
TCEAL7 | 0.84
TBK1 | 0.85
C1QTNF6 | 1.19
ZNF30 | 1.38
EIF2D | 1.15
NPLOC4 | 0.94
KREMEN2 | 0.92
MRPS22 | 1.1
SMPD3 | 0.76
ADAM9 | 1.15
ADARB1 | 0.75
TP53INP2 | 0.8
KLK11 | 1.48
ZNF322 | 1.5
BTBD9 | 0.99
MED28 | 0.82
RIMS1 | 1.08
SFTPA2 | 0.66
CA12 | 0.98
RPAIN | 0.92
DBN1 | 1.03
LOC400576 (retired record) | 1.02
OR4F3 | 1.67
LRRC40 | 1.41
GLA | 1.06
CATSPERE | 1.02
STAU1 | 1.27
MRPS35 | 1.05
EBP | 0.97
TTC31 | 1.05
C19orf48P | 1.37
TXNRD2 | 0.89
MTA1 | 0.97
WDCP | 0.89
TRMT61B | 1.07
HCG27 | 1.24
WDR93 | 0.93
MCM8 | 1
NKIRAS1 | 0.98
ACADSB | 0.81
PABPC1L2A | 1.05
CCDC33 | 0.82
STXBP6 | 0.85
OR52D1 | 1.36
NUMA1 | 1.18
PAK3 | 0.89
VAMP1 | 1.25
PARP16 | 0.95
AHCYL2 | 1.21

11 consecutive records already listed, for reference:
target | CDH1-null / parental viability ratio
CATSPERE | 1.02
STAU1 | 1.27
MRPS35 | 1.05
EBP | 0.97
TTC31 | 1.05
C19orf48P | 1.37
TXNRD2 | 0.89
MTA1 | 0.97
WDCP | 0.89
TRMT61B | 1.07
HCG27 | 1.24
